Results from US20240327542A1.
These are yes or no findings as the source states them, for the method shown. Some entries that bind do so weakly or less than the wild type.

Molecular target: T1, AMG510 conjugated to the poly-Ser peptide containing a central Cys
T1 sequence (peptide, AMG510 conjugated (central Cys); C-terminal (K-long chain Biotin)-amide): SSSSCSSSSW
Experiment: yeast surface display, flow cytometry (FIG. 6)

B1: P2AMR-12 (protein)
VH: QVQLQESGPGLVKPSETLSLTCTVSGDSIINDPHYWGWIRQSPGKGLEWIGSTSHSGHTYFNPSLKSRVSMSIDVAKNQFSLNVRSVTAADTAVYYCARMRYYYSGTYPVYYFDYWGQGTLVTVSS
binding: binds
